# Data from PMC7835349 (Communications Biology, 2021).
# Values joined by “and” are separate entries in the source; they are usually repeats but may differ in a detail not shown here. Equal values may be shown once. Further values from the same series stand in other lists.
# System: telemetered dogs
# Assay: Conscious dog telemetry (QRS amplitude and other cardiovascular parameters, tolerability)
# Conditions: dog
# [1] = 0.85 mg/kg 3h infusion, 8 h, 0.85 mg/kg
# [2] = 0.85 mg/kg 3h infusion, 12 h, 0.85 mg/kg
# [3] = 0.85 mg/kg 3h infusion, 16 h, 0.85 mg/kg
# [4] = 0.85 mg/kg 3h infusion, 22 h, 0.85 mg/kg
# [5] = 0.85 mg/kg 3h infusion, -0.75 h, 0.85 mg/kg
# [6] = 0.85 mg/kg 3h infusion, -1 h, 0.85 mg/kg
# [7] = 0.85 mg/kg 3h infusion, -1.25 h, 0.85 mg/kg
compound,measurement,setting,value
CN(CCO)CCC(CSc1ccccc1)Nc1ccc(S(=O)(=O)NC(=O)c2ccc(N3CCC(C(O)c4ccccc4-c4ccc(Cl)cc4)CC3)cc2)cc1S(=O)(=O)C(F)(F)F (stereo not shown) [AZD4320],Left ventricular -dP/dt (mmHg/s),[1],2132 mmHg/s and 2355 mmHg/s and 2916 mmHg/s and 3974 mmHg/s
same,QRS amplitude (% baseline),[1],74 % baseline and 56 % baseline and 75 % baseline and 83 % baseline
same,Systolic blood pressure (mmHg),[1],107 mmHg and 118 mmHg and 153 mmHg and 152 mmHg
same,ECG PR interval,[2],86 ms and 70 ms and 71 ms
same,ECG QRS duration,[2],43 ms and 37 ms and 39 ms and 35 ms
same,Left ventricular -dP/dt (mmHg/s),[2],2805 mmHg/s and 2508 mmHg/s and 2799 mmHg/s and 3945 mmHg/s
same,QRS amplitude (% baseline),[2],85 % baseline and 68 % baseline and 95 % baseline and 78 % baseline
same,Systolic blood pressure (mmHg),[2],122 mmHg and 135 mmHg and 159 mmHg and 155 mmHg
same,ECG PR interval,[3],91 ms and 98 ms and 89 ms and 75 ms
same,ECG QRS duration,[3],45 ms and 37 ms and 40 ms and 35 ms
same,Left ventricular -dP/dt (mmHg/s),[3],3565 mmHg/s and 2934 mmHg/s and 2794 mmHg/s and 4930 mmHg/s
same,QRS amplitude (% baseline),[3],90 % baseline and 82 % baseline and 84 % baseline
same,Systolic blood pressure (mmHg),[3],139 mmHg and 133 mmHg and 156 mmHg and 159 mmHg
same,ECG PR interval,[4],115 ms and 95 ms and 105 ms and 90 ms
same,ECG QRS duration,[4],45 ms and 39 ms and 36 ms
same,Left ventricular -dP/dt (mmHg/s),[4],3001 mmHg/s and 3258 mmHg/s and 3054 mmHg/s and 4615 mmHg/s
same,QRS amplitude (% baseline),[4],95 % baseline and 80 % baseline and 87 % baseline and 97 % baseline
same,Systolic blood pressure (mmHg),[4],129 mmHg and 166 mmHg and 153 mmHg and 163 mmHg
same,ECG PR interval,[5],111 ms and 92 ms and 87 ms and 91 ms
same,ECG QRS duration,[5],45 ms and 39 ms and 40 ms and 36 ms
same,Left ventricular -dP/dt (mmHg/s),[5],3661 mmHg/s and 3123 mmHg/s and 2933 mmHg/s and 4747 mmHg/s
same,QRS amplitude (% baseline),[5],96 % baseline and 100 % baseline and 99 % baseline and 95 % baseline
same,Systolic blood pressure (mmHg),[5],149 mmHg and 155 mmHg and 148 mmHg and 162 mmHg
same,ECG PR interval,[6],116 ms and 100 ms and 92 ms and 90 ms
same,ECG QRS duration,[6],46 ms and 40 ms and 39 ms and 36 ms
same,Left ventricular -dP/dt (mmHg/s),[6],3153 mmHg/s and 2761 mmHg/s and 3657 mmHg/s and 4923 mmHg/s
same,QRS amplitude (% baseline),[6],95 % baseline and 100 % baseline and 94 % baseline
same,Systolic blood pressure (mmHg),[6],138 mmHg and 140 mmHg and 164 mmHg and 165 mmHg
same,ECG PR interval,[7],112 ms and 96 ms and 93 ms
same,ECG QRS duration,[7],45 ms and 39 ms and 40 ms and 36 ms
same,Left ventricular -dP/dt (mmHg/s),[7],3603 mmHg/s and 3164 mmHg/s and 2717 mmHg/s and 4703 mmHg/s
same,QRS amplitude (% baseline),[7],96 % baseline and 107 % baseline and 102 % baseline and 93 % baseline
same,Systolic blood pressure (mmHg),[7],148 mmHg and 153 mmHg and 136 mmHg and 157 mmHg
same,QRS amplitude (% baseline),"0.85 mg/kg 3h infusion, -[…]",100 % baseline
same,ECG PR interval,"1 mg/kg 0.5h infusion, 0 h",103 ms
same,ECG QRS duration,"1 mg/kg 0.5h infusion, 0 h",45 ms
same,Left ventricular -dP/dt (mmHg/s),"1 mg/kg 0.5h infusion, 0 h",-1983 mmHg/s
same,QRS amplitude (% baseline),"1 mg/kg 0.5h infusion, 0 h",100 % baseline
same,Systolic blood pressure (mmHg),"1 mg/kg 0.5h infusion, 0 h",126 mmHg
same,ECG PR interval,"1 mg/kg 0.5h infusion, 0.5 h",89 ms
same,ECG QRS duration,"1 mg/kg 0.5h infusion, 0.5 h",45 ms
same,Left ventricular -dP/dt (mmHg/s),"1 mg/kg 0.5h infusion, 0.5 h",-2409 mmHg/s
same,QRS amplitude (% baseline),"1 mg/kg 0.5h infusion, 0.5 h",98 % baseline
same,Systolic blood pressure (mmHg),"1 mg/kg 0.5h infusion, 0.5 h",162 mmHg
same,ECG PR interval,"1 mg/kg 0.5h infusion, 1 h",93 ms
same,ECG QRS duration,"1 mg/kg 0.5h infusion, 1 h",45 ms
same,Left ventricular -dP/dt (mmHg/s),"1 mg/kg 0.5h infusion, 1 h",-2284 mmHg/s
same,QRS amplitude (% baseline),"1 mg/kg 0.5h infusion, 1 h",99 % baseline
same,Systolic blood pressure (mmHg),"1 mg/kg 0.5h infusion, 1 h",151 mmHg
same,ECG PR interval,"1 mg/kg 0.5h infusion, 1.5 h",99 ms
same,ECG QRS duration,"1 mg/kg 0.5h infusion, 1.5 h",44 ms
same,Left ventricular -dP/dt (mmHg/s),"1 mg/kg 0.5h infusion, 1.5 h",-2274 mmHg/s
same,QRS amplitude (% baseline),"1 mg/kg 0.5h infusion, 1.5 h",96 % baseline
same,Systolic blood pressure (mmHg),"1 mg/kg 0.5h infusion, 1.5 h",152 mmHg
same,ECG PR interval,"1 mg/kg 0.5h infusion, 2 h",100 ms
same,ECG QRS duration,"1 mg/kg 0.5h infusion, 2 h",44 ms
same,Left ventricular -dP/dt (mmHg/s),"1 mg/kg 0.5h infusion, 2 h",-2238 mmHg/s
same,QRS amplitude (% baseline),"1 mg/kg 0.5h infusion, 2 h",66 % baseline
same,Systolic blood pressure (mmHg),"1 mg/kg 0.5h infusion, 2 h",154 mmHg
same,ECG PR interval,"1 mg/kg 0.5h infusion, 3 h",94 ms
same,ECG QRS duration,"1 mg/kg 0.5h infusion, 3 h",45 ms
same,Left ventricular -dP/dt (mmHg/s),"1 mg/kg 0.5h infusion, 3 h",-1148 mmHg/s
same,QRS amplitude (% baseline),"1 mg/kg 0.5h infusion, 3 h",23 % baseline
same,Systolic blood pressure (mmHg),"1 mg/kg 0.5h infusion, 3 h",100 mmHg
same,ECG PR interval,"1 mg/kg 0.5h infusion, 4 h",84 ms
same,ECG QRS duration,"1 mg/kg 0.5h infusion, 4 h",43 ms
same,Left ventricular -dP/dt (mmHg/s),"1 mg/kg 0.5h infusion, 4 h",-1167 mmHg/s
same,QRS amplitude (% baseline),"1 mg/kg 0.5h infusion, 4 h",24 % baseline
same,Systolic blood pressure (mmHg),"1 mg/kg 0.5h infusion, 4 h",92 mmHg
same,ECG PR interval,"1 mg/kg 0.5h infusion, 6 h",91 ms
same,ECG QRS duration,"1 mg/kg 0.5h infusion, 6 h",43 ms
same,Left ventricular -dP/dt (mmHg/s),"1 mg/kg 0.5h infusion, 6 h",-1549 mmHg/s
same,QRS amplitude (% baseline),"1 mg/kg 0.5h infusion, 6 h",20 % baseline
same,Systolic blood pressure (mmHg),"1 mg/kg 0.5h infusion, 6 h",85 mmHg
same,ECG PR interval,"1 mg/kg 0.5h infusion, 8 h",86 ms
same,ECG QRS duration,"1 mg/kg 0.5h infusion, 8 h",45 ms
same,Left ventricular -dP/dt (mmHg/s),"1 mg/kg 0.5h infusion, 8 h",-2129 mmHg/s
same,QRS amplitude (% baseline),"1 mg/kg 0.5h infusion, 8 h",29 % baseline
same,Systolic blood pressure (mmHg),"1 mg/kg 0.5h infusion, 8 h",113 mmHg
same,ECG PR interval,"1 mg/kg 0.5h infusion, 10 h",91 ms
same,ECG QRS duration,"1 mg/kg 0.5h infusion, 10 h",43 ms
same,Left ventricular -dP/dt (mmHg/s),"1 mg/kg 0.5h infusion, 10 h",-1885 mmHg/s
same,QRS amplitude (% baseline),"1 mg/kg 0.5h infusion, 10 h",29 % baseline
same,Systolic blood pressure (mmHg),"1 mg/kg 0.5h infusion, 10 h",104 mmHg
same,ECG PR interval,"1 mg/kg 0.5h infusion, -0.5 h",110 ms
same,ECG QRS duration,"1 mg/kg 0.5h infusion, -0.5 h",44 ms
same,Left ventricular -dP/dt (mmHg/s),"1 mg/kg 0.5h infusion, -0.5 h",-2044 mmHg/s
same,QRS amplitude (% baseline),"1 mg/kg 0.5h infusion, -0.5 h",103 % baseline
same,Systolic blood pressure (mmHg),"1 mg/kg 0.5h infusion, -0.5 h",123 mmHg
same,ECG PR interval,"1 mg/kg 0.5h infusion, -0.75 h",98 ms
same,ECG QRS duration,"1 mg/kg 0.5h infusion, -0.75 h",45 ms
same,Left ventricular -dP/dt (mmHg/s),"1 mg/kg 0.5h infusion, -0.75 h",-2025 mmHg/s
same,QRS amplitude (% baseline),"1 mg/kg 0.5h infusion, -0.75 h",99 % baseline
same,Systolic blood pressure (mmHg),"1 mg/kg 0.5h infusion, -0.75 h",133 mmHg
same,ECG PR interval,"1 mg/kg 0.5h infusion, -1 h",96 ms
same,ECG QRS duration,"1 mg/kg 0.5h infusion, -1 h",45 ms
same,Left ventricular -dP/dt (mmHg/s),"1 mg/kg 0.5h infusion, -1 h",-2048 mmHg/s
same,QRS amplitude (% baseline),"1 mg/kg 0.5h infusion, -1 h",95 % baseline
same,Systolic blood pressure (mmHg),"1 mg/kg 0.5h infusion, -1 h",131 mmHg
same,ECG PR interval,"1 mg/kg 0.5h infusion, -[…]",108 ms
same,ECG QRS duration,"1 mg/kg 0.5h infusion, -[…]",45 ms
same,Left ventricular -dP/dt (mmHg/s),"1 mg/kg 0.5h infusion, -[…]",-1815 mmHg/s
same,QRS amplitude (% baseline),"1 mg/kg 0.5h infusion, -[…]",103 % baseline
same,Systolic blood pressure (mmHg),"1 mg/kg 0.5h infusion, -[…]",117 mmHg
same,ECG PR interval,"1 mg/kg 0.5h infusion, […]",87 ms
same,ECG QRS duration,"1 mg/kg 0.5h infusion, […]",43 ms
same,Left ventricular -dP/dt (mmHg/s),"1 mg/kg 0.5h infusion, […]",-1338 mmHg/s
same,QRS amplitude (% baseline),"1 mg/kg 0.5h infusion, […]",33 % baseline
same,Systolic blood pressure (mmHg),"1 mg/kg 0.5h infusion, […]",106 mmHg
